Source: the supplement of paper PMC8728848
The list shows a part of the results.

Experiments:
Assay in all cases: glycan array binding signal (z-score within array); higher = stronger binding
Conditions in all cases: glycan notation: IUPAC condensed, linker removed
[1] = biological target: GalNAc3S(b1-4)[Fuc(a1-3)]GlcNAc
Summary of the method: (§1)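 The binding signal is a Z-score computed within each array. Data were drawn from 3228 arrays in the Consortium for Functional Glycomics database, restricted to those with a known protein sequence. Scores were averaged over arrays of the same protein sequence at different concentrations or buffers, and over linkers, and negative values can be taken as non-binding.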

GalNAc4S6S(b1-4)GlcNAc = biological target: GalNAc4S6S(b1-4)GlcNAc
Summary of the method: as §1

GalNAc6S(b1-4)GlcNAc = biological target: GalNAc6S(b1-4)GlcNAc
Summary of the method: as §1

Glc(a1-4)Glc = biological target: Glc(a1-4)Glc
Summary of the method: as §1

[2] = biological target: Glc(a1-4)Glc(a1-4)Glc(a1-4)Glc
Summary of the method: as §1

Glc(a1-6)Glc(a1-6)Glc = biological target: Glc(a1-6)Glc(a1-6)Glc
Summary of the method: as §1

[3] = biological target: Glc(a1-6)Glc(a1-6)Glc(a1-6)Glc
Summary of the method: as §1

Glc(b1-4)Glc = biological target: Glc(b1-4)Glc
Summary of the method: as §1

Glc(b1-6)Glc = biological target: Glc(b1-6)Glc
Summary of the method: as §1

GlcA(b1-3)Gal = biological target: GlcA(b1-3)Gal
Summary of the method: as §1

GlcA(b1-3)GlcNAc = biological target: GlcA(b1-3)GlcNAc
Summary of the method: as §1

GlcA(b1-6)Gal = biological target: GlcA(b1-6)Gal
Summary of the method: as §1

[4] = biological target: GlcA3S(b1-3)Gal(b1-4)GlcNAc(b1-2)Man
Summary of the method: as §1

[5] = biological target: GlcA3S(b1-3)Gal(b1-4)GlcNAc(b1-3)Gal(b1-4)Glc
Summary of the method: as §1

[6] = biological target: GlcNAc(a1-3)Gal(b1-4)GlcNAc
Summary of the method: as §1

[7] = biological target: GlcNAc(a1-4)Gal(b1-3)GlcNAc
Summary of the method: as §1

[8] = biological target: GlcNAc(a1-4)Gal(b1-4)GalNAc
Summary of the method: as §1

[9] = biological target: GlcNAc(a1-4)Gal(b1-4)GlcNAc
Summary of the method: as §1

[10] = biological target: GlcNAc(a1-4)Gal(b1-4)GlcNAc(b1-3)Gal(b1-4)Glc
Summary of the method: as §1

[11] = biological target: GlcNAc(a1-4)Gal(b1-4)GlcNAc(b1-3)Gal(b1-4)GlcNAc
Summary of the method: as §1

[12] = biological target: GlcNAc(a1-4)Gal(b1-4)GlcNAc(b1-3)Gal(b1-4)GlcNAc(b1-3)Gal(b1-4)GlcNAc
Summary of the method: as §1

[13] = biological target: GlcNAc(a1-4)Gal(b1-4)GlcNAc(b1-3)Gal(b1-4)[Fuc(a1-3)]GlcNAc(b1-3)Gal(b1-4)[Fuc(a1-3)]GlcNAc
Summary of the method: as §1

[14] = biological target: GlcNAc(a1-6)Gal(b1-4)GlcNAc
Summary of the method: as §1

[15] = biological target: GlcNAc(b1-2)Gal(b1-3)GalNAc
Summary of the method: as §1

[16] = biological target: GlcNAc(b1-2)Man(a1-3)[GlcNAc(b1-2)Man(a1-6)]Man(b1-4)GlcNAc(b1-4)GlcNAc
Summary of the method: as §1

[17] = biological target: GlcNAc(b1-2)Man(a1-3)[GlcNAc(b1-2)Man(a1-6)]Man(b1-4)GlcNAc(b1-4)[Fuc(a1-6)]GlcNAc
Summary of the method: as §1

[18] = biological target: GlcNAc(b1-2)Man(a1-3)[GlcNAc(b1-4)][GlcNAc(b1-2)Man(a1-6)]Man(b1-4)GlcNAc(b1-4)GlcNAc
Summary of the method: as §1

[19] = biological target: GlcNAc(b1-2)Man(a1-3)[GlcNAc(b1-4)][GlcNAc(b1-2)Man(a1-6)]Man(b1-4)GlcNAc(b1-4)[Fuc(a1-6)]GlcNAc
Summary of the method: as §1

[20] = biological target: GlcNAc(b1-2)[GlcNAc(b1-4)]Man(a1-3)[GlcNAc(b1-2)Man(a1-6)]Man(b1-4)GlcNAc(b1-4)GlcNAc
Summary of the method: as §1

[21] = biological target: GlcNAc(b1-2)[GlcNAc(b1-4)]Man(a1-3)[GlcNAc(b1-4)][GlcNAc(b1-2)Man(a1-6)]Man(b1-4)GlcNAc(b1-4)GlcNAc
Summary of the method: as §1

[22] = biological target: GlcNAc(b1-2)[GlcNAc(b1-4)]Man(a1-3)[GlcNAc(b1-4)][GlcNAc(b1-2)[GlcNAc(b1-6)]Man(a1-6)]Man(b1-4)GlcNAc(b1-4)GlcNAc
Summary of the method: as §1

[23] = biological target: GlcNAc(b1-2)[GlcNAc(b1-4)]Man(a1-3)[GlcNAc(b1-4)][GlcNAc(b1-2)[GlcNAc(b1-6)]Man(a1-6)]Man(b1-4)GlcNAc(b1-4)[Fuc(a1-6)]GlcNAc
Summary of the method: as §1

[24] = biological target: GlcNAc(b1-2)[GlcNAc(b1-6)]Man(a1-6)[GlcNAc(b1-2)Man(a1-3)]Man(b1-4)GlcNAc(b1-4)GlcNAc
Summary of the method: as §1

[25] = biological target: GlcNAc(b1-2)[GlcNAc(b1-6)]Man(a1-6)[GlcNAc(b1-2)Man(a1-3)]Man(b1-4)GlcNAc(b1-4)[Fuc(a1-6)]GlcNAc
Summary of the method: as §1

[26] = biological target: GlcNAc(b1-2)[GlcNAc(b1-6)]Man(a1-6)[GlcNAc(b1-4)][GlcNAc(b1-2)Man(a1-3)]Man(b1-4)GlcNAc(b1-4)GlcNAc
Summary of the method: as §1

GlcNAc(b1-3)Fuc = biological target: GlcNAc(b1-3)Fuc
Summary of the method: as §1

GlcNAc(b1-3)Gal = biological target: GlcNAc(b1-3)Gal
Summary of the method: as §1

[27] = biological target: GlcNAc(b1-3)Gal(b1-3)GalNAc
Summary of the method: as §1

B1: PX14404-bvu-534-26-534 (Bacteroides vulgatus) (protein)
chain: EDPRGKLTPENFFSTQDELNMSIYALYQKVNLSQVYTNMQLPQWQGDDITTNPGSNKQPAAEMDKFAAANNNKGVKDAWNMHYAIVKAANLIIQGASKTPTTQDEINIALGQAKFWRAYAYFTLVRLWGPLPMNLDNVNDDYTKPLSPVEEVYGHIVQDLTEAEAVLPTGYSGSPRFLNGVNVYVTRQAAKSTLAAVYMAMAGWPMNKTEYYAKAAEKAKEVIEGVNRGEYEYKLDKDYKDVYAMSNNYNNETVLGINYSPFVDWAQDSELTSCNQFESLGGWGDAWGEIRFWKEFPDGPRKDATYDPKIRLKDGTLVDWWELKEDGTPVVPEHHPMFSIFSVNWDPASKVNTSAPYDYTKPASQNMCNDHRHRIIRYSEVLLWYAEAKARTGQTDELAFKCLNDVRERAGLEPLTGLSADDLAEAAYKEHGWEVAGYWVALVTRRADQFRMNRLKDTFKERAENTAVEVADGILVKESVEYTNRTWSDNLMYLPYPDMDSQKNPNLVR
glycan array binding signal (z-score) [1]: 0.588
glycan array binding signal (z-score) (GalNAc4S6S(b1-4)GlcNAc): -0.452
glycan array binding signal (z-score) (GalNAc6S(b1-4)GlcNAc): -0.702
glycan array binding signal (z-score) (Glc(a1-4)Glc): 0.032
glycan array binding signal (z-score) [2]: 1.05
glycan array binding signal (z-score) (Glc(a1-6)Glc(a1-6)Glc): -0.19
glycan array binding signal (z-score) [3]: 0.424
glycan array binding signal (z-score) (Glc(b1-4)Glc): -0.903
glycan array binding signal (z-score) (Glc(b1-6)Glc): 0.352
glycan array binding signal (z-score) (GlcA(b1-3)Gal): -0.659
glycan array binding signal (z-score) (GlcA(b1-3)GlcNAc): 1.07
glycan array binding signal (z-score) (GlcA(b1-6)Gal): 0.681
glycan array binding signal (z-score) [4]: -0.757
glycan array binding signal (z-score) [5]: 0.758
glycan array binding signal (z-score) [6]: -0.95
glycan array binding signal (z-score) [7]: 0.178
glycan array binding signal (z-score) [8]: 0.254
glycan array binding signal (z-score) [9]: 0.553
glycan array binding signal (z-score) [10]: -0.987
glycan array binding signal (z-score) [11]: -0.584
glycan array binding signal (z-score) [12]: -0.821
glycan array binding signal (z-score) [13]: -0.135
glycan array binding signal (z-score) [14]: -1.04
glycan array binding signal (z-score) [15]: -0.047
glycan array binding signal (z-score) [16]: -0.142
glycan array binding signal (z-score) [17]: 1.46
glycan array binding signal (z-score) [18]: -0.52
glycan array binding signal (z-score) [19]: -0.813
glycan array binding signal (z-score) [20]: -1.12
glycan array binding signal (z-score) [21]: -0.525
glycan array binding signal (z-score) [22]: -0.336
glycan array binding signal (z-score) [23]: -1.45
glycan array binding signal (z-score) [24]: 0.165
glycan array binding signal (z-score) [25]: -0.822
glycan array binding signal (z-score) [26]: -1.21
glycan array binding signal (z-score) (GlcNAc(b1-3)Fuc): -0.292
glycan array binding signal (z-score) (GlcNAc(b1-3)Gal): -0.05
glycan array binding signal (z-score) [27]: -0.231
